1 substance from article PMC6624373 can be followed below.

Protein sequences, listed by entry. Tags and fused reporters are not part of them. Residues count along the entry.
UniProt P48679, residues 1-647: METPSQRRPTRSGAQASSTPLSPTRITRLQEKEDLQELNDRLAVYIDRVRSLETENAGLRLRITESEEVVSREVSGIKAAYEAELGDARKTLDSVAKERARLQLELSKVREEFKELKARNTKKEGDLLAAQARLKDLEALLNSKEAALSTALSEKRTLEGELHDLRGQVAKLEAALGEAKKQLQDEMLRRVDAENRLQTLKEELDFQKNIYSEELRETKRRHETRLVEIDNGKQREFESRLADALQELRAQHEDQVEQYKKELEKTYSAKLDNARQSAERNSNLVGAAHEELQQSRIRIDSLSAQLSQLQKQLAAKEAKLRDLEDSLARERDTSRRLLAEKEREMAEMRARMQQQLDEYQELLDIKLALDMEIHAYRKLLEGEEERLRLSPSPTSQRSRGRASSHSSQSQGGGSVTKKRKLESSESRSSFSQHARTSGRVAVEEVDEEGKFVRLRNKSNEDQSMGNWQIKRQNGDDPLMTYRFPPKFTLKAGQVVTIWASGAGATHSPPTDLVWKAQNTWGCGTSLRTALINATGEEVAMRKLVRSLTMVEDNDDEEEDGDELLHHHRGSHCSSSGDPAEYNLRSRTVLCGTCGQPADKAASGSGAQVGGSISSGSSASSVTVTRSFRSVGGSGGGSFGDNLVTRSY

Results are given in words; binding and its absence hold for the method and conditions named. In cells and extracts the contact can be indirect. Some binding calls cover weakened binding; strength is not graded here.

In the assay the target is lamin A of rat liver nuclear envelopes (rat) (UniProt P48679). The assay is described as follows: cross-linking; ex vivo: rat liver nuclear envelopes in NaPi buffer, EDC/S-NHS 1:2.2 at twofold and fourfold weight excess over protein, 30 min; Western blot and LC-MS/MS. On the technique in general: In western blotting, separated proteins are transferred to a membrane and probed.

As for “lamin A of rat liver nuclear envelopes (from UniProt P48679 1-647)”, the binding result is given as “binds”.
